From the supplement of paper PMC9578143, “Small-Molecule Ebselen Binds to YTHDF Proteins Interfering with the Recognition of N^6-Methyladenosine-Modified RNAs” (ACS Pharmacology & Translational Science, 2022)
The other results are listed elsewhere or left out. Plates or batches differ in their baseline, so values are only roughly comparable.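 Hits were defined as a z-score below −3.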

Target: T1, YTHDF1 YTH domain (aa 365-554) (UniProt Q9BYJ9)
T1 sequence (whole entry): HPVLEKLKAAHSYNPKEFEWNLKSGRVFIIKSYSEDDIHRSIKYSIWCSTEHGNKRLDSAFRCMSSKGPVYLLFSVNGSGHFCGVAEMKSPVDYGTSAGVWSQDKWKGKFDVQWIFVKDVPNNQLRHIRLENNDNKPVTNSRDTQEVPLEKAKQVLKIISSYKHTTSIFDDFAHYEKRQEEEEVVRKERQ
Experiment: tryptophan fluorescence intensity z-score (mean); higher = higher fluorescence, less quenching (negative = binding / quenching)
Conditions: 10 µM

Tryptophan fluorescence intensity z-score, inactive:
O=Cc1ccccc1O[C@@H]1O[C@H](CO)[C@@H](O)[C@H](O)[C@H]1O (plate: M 19-20) 0.566, Cn1cnc2c1c(=O)[nH]c(=O)n2C (plate: M 5-6) -0.247, COc1ccc(-c2oc3cc(OC)c(OC)c(OC)c3c(=O)c2OC)cc1 (plate: M 19-20) -0.401, CCN(CC)CCNC(=O)c1cc(Cl)c(N)cc1OC (plate: M 3-4) -0.386, CCOc1ccc2ccccc2c1C(=O)N[C@@H]1C(=O)N2[C@@H]1SC(C)(C)[C@@H]2C(=O)O (plate: M 3-4) 0.0533, CN(C)C/C=C(/c1ccc(Br)cc1)c1cccnc1 (plate: M 13-14) 0.0419, CC(C)(CO)C(O)C(=O)NCCCO (configuration not stated) (plate: M 11-12) -0.603, COc1ccc(-c2coc3cc(OC)ccc3c2=O)cc1 (plate: M 15-16) 0.421, C[n+]1c2cc(N)ccc2cc2ccc(N)cc21 (plate: M 5-6) -0.567, CCC[C@@H]1C[C@@H](C(=O)N[C@@H]([C@H]2O[C@H](SC)[C@H](O)[C@@H](O)[C@H]2O)[C@H](C)Cl)N(C)C1 (plate: M 1-2) 0.183, O=C(N[C@H](CO)[C@H](O)c1ccc([N+](=O)[O-])cc1)C(Cl)Cl (plate: M 1-2) 0.837, O=C(O)CCNC(=O)c1ccccc1 (plate: M 23-24) 0.773, C=C[C@@](C)(O)CCC1C(=C)CCC2[C@@](C)(CO)CCC[C@]12C (some centres not stated) (plate: M 17-18) 0.136, CN[C@@H]1[C@@H](O[C@H]2O[C@H](CO)[C@@H](N)[C@H](O)[C@H]2O)OC2C[C@@H](N)[C@@H](O[C@H]3[C@H](O)[C@@H](O)[C@H](N)C[C@@H]3N)OC2[C@@H]1O (some centres not stated) (plate: M 9-10) -0.16, CC1(C)O[C@H]2CC(=O)OC[C@]23[C@H]2CC[C@@]4(C)[C@H](c5ccoc5)OC(=O)[C@H]5O[C@]54[C@]2(C)C(=O)C[C@@H]13 (plate: M 21-22) 0.384, NCCCC(=O)O [gamma-AMINOBUTYRICACID] (plate: M 17-18) 0.697, CC(C)CCC[C@@H](C)[C@H]1CC[C@H]2[C@@H]3CC(=O)[C@H]4C[C@@H](O)CC[C@]4(C)[C@H]3CC[C@]12C [5alpha-CHOLESTAN-3beta-OL-6-ONE] (plate: M 15-16) 0.49, CCCCCCCCCCCCCCCCCCCCCCO (plate: M 13-14) 0.523, CC(=O)Oc1cc(OC(C)=O)c2c(c1)O[C@H](c1ccc(OC(C)=O)c(OC(C)=O)c1)[C@@H](OC(C)=O)C2 (plate: M 21-22) -0.0724, CN[C@H](CC(=O)O)C(=O)O (plate: M 21-22) 0.377, NS(=O)(=O)c1cc2c(cc1Cl)NC(C(Cl)Cl)NS2(=O)=O (configuration not stated) (plate: M 5-6) 0.0914, CN[C@@H]1[C@H](O)[C@H](NC)[C@H]2O[C@@]3(O)C(=O)C[C@@H](C)O[C@H]3O[C@@H]2[C@H]1O (plate: M 5-6) -0.39, Cc1onc(-c2ccccc2Cl)c1C(=O)N[C@@H]1C(=O)N2[C@@H]1SC(C)(C)[C@@H]2C(=O)O (plate: M 1-2) 0.205, COc1c(CC(=O)c2cc3c(cc2O)OC(C)(C)C(O)C3)ccc2c1C=CC(C)(C)O2 (configuration not stated) (plate: M 15-16) 0.541, C=CC(C1=CC(=O)C(OC)=CC1=O)c1ccccc1 (configuration not stated) (plate: M 15-16) -0.435, C[C@H]1c2cccc(O)c2C(=O)C2=C(O)[C@]3(O)C(=O)C(C(N)=O)=C(O)[C@@H](N(C)C)[C@@H]3[C@@H](O)[C@@H]21 (plate: M 3-4) -0.176, C[C@](N)(Cc1ccc(O)c(O)c1)C(=O)O (plate: M 3-4) -0.421, Clc1ccc(C(Cn2ccnc2)OCc2ccsc2Cl)c(Cl)c1 (configuration not stated) (plate: M 11-12) -0.827, C[C@@H]1CC[C@H]2[C@](C)(CO)[C@@H](O)CC[C@]2(C)[C@@]12CC[C@@](CO)(CCO)O2 (plate: M 19-20) 0.621, O=C(O)C1CC([C@@H]2CCCCN2)CN2CCCCC12 (some centres not stated) (plate: M 19-20) 0.375, COc1ccc2c(c1)OC/C(=C/c1ccc(OC)c(OC)c1)C2=O (plate: M 21-22) -0.0395, COc1cc(C(=O)NCc2ccc(OCCN(C)C)cc2)cc(OC)c1OC (plate: M 5-6) -0.0754, CCc1nc(N)nc(N)c1-c1ccc(Cl)cc1 (plate: M 5-6) 0.125, CC(=O)[C@@]1(O)CC[C@H]2[C@@H]3C[C@H](C)C4=CC(=O)C=C[C@]4(C)[C@@]3(F)[C@@H](O)C[C@@]21C (plate: M 3-4) -0.119, CC(C)c1c(O)c(-c2cc3c(c(C(C)C)c2O)CCC2C(C)(C)CCC[C@]32C)cc2c1CCC1C(C)(C)CCC[C@]21C (some centres not stated) (plate: M 13-14) 0.698, C1CCC(C(CC2CCCCN2)C2CCCCC2)CC1 (configuration not stated) (plate: M 7-8) 0.188, COc1ccc(/C=C/C(=O)c2ccc(O)cc2O)cc1 (plate: M 19-20) -0.214, O=C(O)c1cn(C2CC2)c2cc(N3CCNCC3)c(F)cc2c1=O (plate: M 9-10) -0.556, COc1ccc2c(c1)OCC(Cc1ccc(OC)c(O)c1)C2=O (configuration not stated) (plate: M 15-16) 0.192, Cc1cc(C(C)(C)C)c(O)c(C(C)(C)C)c1 (plate: M 13-14) 0.372, CC(=O)Nc1ccc(OCC(O)CNC(C)C)cc1 (configuration not stated) (plate: M 13-14) 1.04, CN1[C@@H]2CC[C@H]1C[C@@H](OC(c1ccccc1)c1ccccc1)C2 (plate: M 1-2) 0.295
